Data reported in US20080033057A1, “Hexahydro-isoalpha acid based protein kinase modulation cancer treatment” (Metaproteomics, LLC, priority 2006, published 2008).
At least one structure is not confirmed: it was looked up by name or label, or the drawing left a doubt.

System: NF-κB
Experiment: NF-κB DNA binding (TransAM) in nuclear extracts of LPS-stimulated RAW 264.7 cells
Type: cell-based, murine
Settings: LPS 4 hours; MgRIAA 55 and 14, parthenolide 80 μM, LY294002 25 μM

**Q.** `O=c1cc(N2CCOCC2)oc2c(-c3ccccc3)cccc12` [LY294002] was tested. Which “NF-κB DNA binding” value did it give?
**A.** The value was “modest decrease”.
